Source: PubChem BioAssay AID1259405 (NCATS, 2018)
Shown is a random part of about 50,000 deposited reagents. In the full data, about 4,000 (8%) are marked active. 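Mouse siRNA library applied to hamster cells; one well for each siRNA.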 The numbers tell different reagents against one gene apart.

Screen: 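Knock-downs that lift recombinant protein yield in hamster ovary cells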 (primary screen)
System: Chinese hamster CHO-K1 ovary cells with stable secreted eGFP expression
Reagents: single siRNA against mouse genes, 0.8 pmol siRNA per well (2 µl of 400 nM stock)
Duration: 3 days
Measurement: 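Per-well intracellular GFP measured by laser scanning cytometry, plus viability from ATP luminescence, each relative to plate median of non-targeting control wells, in %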
Reading the numbers: GFP, % of control: higher = more GFP per well, higher productivity; viability (ATP), % of control: higher = more viable cells (more ATP)
Rule for the call: 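a knock-down is called active if GFP reaches 120% or more of non-targeting control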

no.	gene	siRNA no.	GFP, % of control	viability (ATP), % of control	Outcome
1	Fam107b	1	75.7	54.7	inactive
2	Fam107b	2	98.5	78.9	inactive
3	Fam107b	3	107	61	inactive
4	Tdh	1	83.3	54.9	inactive
5	Tdh	2	71.5	72.3	inactive
6	Tdh	3	81.2	75.9	inactive
7	Atp2b4	1	39.9	43.3	inactive
8	Atp2b4	2	55.4	87.6	inactive
9	Atp2b4	3	41.9	52.5	inactive
10	Ranbp9	1	36.3	29.9	inactive
11	Ranbp9	2	71.9	95.6	inactive
12	Ranbp9	3	97.5	114	inactive
13	Oscp1	1	95.3	51.9	inactive
14	Oscp1	2	116	66.3	inactive
15	Oscp1	3	68.8	85.8	inactive
16	Col8a2	1	66.6	70.4	inactive
17	Col8a2	2	39.8	46.7	inactive
18	Col8a2	3	66.4	71	inactive
19	Stau1	1	64.1	74.2	inactive
20	Stau1	2	66.3	91.7	inactive
21	Stau1	3	61.4	67.3	inactive
22	Kcnj2	1	122	60	active
23	Kcnj2	2	30.1	35.4	inactive
24	Kcnj2	3	72.9	78.8	inactive
25	Slc6a20b	1	61.3	41.9	inactive
26	Slc6a20b	2	99.7	86.3	inactive
27	Slc6a20b	3	74.6	76.6	inactive
28	Serpina6	1	138	90.5	active
29	Serpina6	2	99.1	91.5	inactive
30	Serpina6	3	77.2	77.7	inactive
31	Cox10	1	163	95	active
32	Cox10	2	112	135	inactive
33	Cox10	3	140	93	active
34	Ptprg	1	66.2	78.3	inactive
35	Ptprg	2	54.5	38.3	inactive
36	Ptprg	3	94.4	79.4	inactive
37	Cops6	1	104	109	inactive
38	Cops6	2	138	72.1	active
39	Cops6	3	111	119	inactive
40	Or51d1	1	75.5	65.6	inactive
41	Or51d1	2	55.7	80.6	inactive
42	Or51d1	3	60	70.2	inactive
43	Tbcd	1	43.5	78.3	inactive
44	Tbcd	2	50.8	55	inactive
45	Tbcd	3	76.5	72.7	inactive
46	F730035P03Rik	1	34.8	46.2	inactive
47	F730035P03Rik	2	80.1	94.8	inactive
48	F730035P03Rik	3	97.4	98.4	inactive
49	Tafa5	1	54.7	66	inactive
50	Tafa5	2	37.9	67.2	inactive
51	Tafa5	3	77.6	70.3	inactive
52	Atp10a	1	114	119	inactive
53	Atp10a	2	79.5	121	inactive
54	Atp10a	3	120	122	active
55	Arhgap8	1	60.8	82.7	inactive
56	Arhgap8	2	141	89.4	active
57	Arhgap8	3	91.2	46.9	inactive
58	Iba57	1	106	106	inactive
59	Iba57	2	35.8	63.9	inactive
60	Iba57	3	80.2	88.1	inactive
61	Iba57	4	76.6	90.1	inactive
62	Iba57	5	62.5	30.5	inactive
63	Iba57	6	50.2	67.5	inactive
64	Dync2i1	1	81.7	68.3	inactive
65	Dync2i1	2	140	82	active
66	Dync2i1	3	104	76.5	inactive
67	Cry1	1	70.8	72.1	inactive
68	Cry1	2	53.5	60.8	inactive
69	Cry1	3	73.4	73.7	inactive
70	Mc5r	1	83.5	63.7	inactive
71	Mc5r	2	108	61.1	inactive
72	Mc5r	3	105	59.2	inactive
73	Or13c7	1	24.6	32.5	inactive
74	Or13c7	2	73.2	70.4	inactive
75	Or13c7	3	31.4	45.8	inactive
76	Adam2	1	70.1	44.2	inactive
77	Adam2	2	148	74	active
78	Adam2	3	103	71.7	inactive
79	Klf2	1	88.4	99	inactive
80	Klf2	2	89.9	76.3	inactive
81	Klf2	3	71.3	55.9	inactive
82	Slc46a1	1	112	142	inactive
83	Slc46a1	2	103	92.9	inactive
84	Sec13	1	37.5	41	inactive
85	Sec13	2	89.2	36.8	inactive
86	Sec13	3	78.2	83.4	inactive
